The values that follow come from PMC9565047.

The chains behind the UniProt entries cited, without tags or fusion partners. Where a name states a change or a piece, a line headed by the entry shows the natural chain unless it says otherwise.
UniProt B4YB07: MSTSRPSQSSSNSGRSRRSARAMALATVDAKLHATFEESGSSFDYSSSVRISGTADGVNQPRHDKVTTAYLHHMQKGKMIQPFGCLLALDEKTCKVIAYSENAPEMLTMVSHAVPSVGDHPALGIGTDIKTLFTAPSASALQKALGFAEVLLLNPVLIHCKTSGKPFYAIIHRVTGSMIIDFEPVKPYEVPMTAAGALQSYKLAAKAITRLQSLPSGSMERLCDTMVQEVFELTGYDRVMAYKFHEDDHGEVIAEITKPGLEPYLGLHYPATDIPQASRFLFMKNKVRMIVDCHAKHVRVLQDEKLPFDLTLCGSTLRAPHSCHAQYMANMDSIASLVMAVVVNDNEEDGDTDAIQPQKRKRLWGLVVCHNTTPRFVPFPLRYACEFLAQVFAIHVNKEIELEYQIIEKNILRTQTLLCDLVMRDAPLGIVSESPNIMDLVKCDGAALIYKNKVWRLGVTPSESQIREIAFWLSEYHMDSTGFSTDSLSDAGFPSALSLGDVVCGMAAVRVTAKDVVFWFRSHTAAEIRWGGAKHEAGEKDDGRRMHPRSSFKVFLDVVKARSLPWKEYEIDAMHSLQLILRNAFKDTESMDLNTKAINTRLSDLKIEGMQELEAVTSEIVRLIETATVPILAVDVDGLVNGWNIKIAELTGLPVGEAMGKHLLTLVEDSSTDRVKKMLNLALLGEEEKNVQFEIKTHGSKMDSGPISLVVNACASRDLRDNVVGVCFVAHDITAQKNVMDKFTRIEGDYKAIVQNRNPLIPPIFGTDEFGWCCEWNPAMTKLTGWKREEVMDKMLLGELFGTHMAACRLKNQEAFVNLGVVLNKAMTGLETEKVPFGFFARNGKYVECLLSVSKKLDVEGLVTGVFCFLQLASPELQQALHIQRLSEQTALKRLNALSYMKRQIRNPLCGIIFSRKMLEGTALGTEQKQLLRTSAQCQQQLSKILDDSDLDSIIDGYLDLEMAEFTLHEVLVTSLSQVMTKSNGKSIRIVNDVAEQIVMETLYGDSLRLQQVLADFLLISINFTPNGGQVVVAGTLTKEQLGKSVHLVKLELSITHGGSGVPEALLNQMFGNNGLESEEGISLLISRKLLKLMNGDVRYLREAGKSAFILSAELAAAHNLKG

The target in experiment [1] is phyA2 (full length, yeast two-hybrid fusion) (soybean (Glycine max)) (UniProt B4YB07). The experiment is described as follows: two-hybrid; GAL4 yeast two-hybrid (Clontech); growth on SD/-Leu-Trp, selection on SD/-His-Leu-Trp or SD/-His-Leu-Trp-Ade with 3-amino-1,2,4-triazole.
Experiment [2] deals with phyA3 (full length, yeast two-hybrid fusion) (soybean (Glycine max)) (UniProt C1PHB8). Described as above.

No constants are given. Whether binding was seen depends on the method and setting. Binding calls can cover weak binding; strength is not graded here.

Turning to “E1lb (yeast two-hybrid fusion) (from UniProt K7MS71)”, the binding result in experiment [1] and in experiment [2] was “binds” in each case.
